Laboratory results reported in US20100144755A1 (Glaxo Group Limited, priority 2006, published 2010).
Some entries share one result that the patent states for a list of compounds.

Sequences of proteins named here, by UniProt entry; tags and fusion partners are left off.
UniProt Q16539, whole entry: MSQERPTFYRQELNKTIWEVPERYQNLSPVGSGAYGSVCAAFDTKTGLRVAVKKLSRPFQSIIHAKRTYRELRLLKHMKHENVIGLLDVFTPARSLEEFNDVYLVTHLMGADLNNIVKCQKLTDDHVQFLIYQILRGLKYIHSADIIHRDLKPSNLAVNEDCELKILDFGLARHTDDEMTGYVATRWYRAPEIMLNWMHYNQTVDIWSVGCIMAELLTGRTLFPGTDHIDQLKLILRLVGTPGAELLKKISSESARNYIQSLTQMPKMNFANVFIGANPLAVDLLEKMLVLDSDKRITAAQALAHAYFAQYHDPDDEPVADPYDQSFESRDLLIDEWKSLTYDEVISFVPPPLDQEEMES

Key:
Recombinant human p38α = biological target: T1, Recombinant human p38α (Homo sapiens, UniProt Q16539); experiment: Time-resolved fluorescence resonance energy transfer (TR-FRET) kinase assay (standard and low volume); format: biochemical; parameters: key: active: a pIC50 of greater than 4.6 up to about a pIC50 of greater than 10.0; settings: MKK6-activated p38α 100 pM, GST-ATF2 substrate; result in words
T1 construct: His; made in house

[1] = tested on: TNF-stimulated IL8 production by human neutrophils; experiment: TNF-stimulated IL-8 production from human neutrophils; format: cell-based; settings: TNF 100 ng/ml, about 20 hrs, screened up to 100 nM; result in words;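 further: IL-8 in cell-free supernatant quantified by sandwich ELISA, inhibition calculated against a compound-free control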
[2] = tested on: LPS-stimulated TNFalpha production in human whole blood; experiment: LPS-stimulated cytokine production in human whole blood; format: cell-based; settings: LPS 50 ng/ml final, 4 hour incubation, ELISA, result in words

Cc1ccc(C(=O)Nc2nccs2)cc1-c1nc(NCCCNC(C)(C)C)nc2c1ccc(=O)n2-c1c(F)cccc1F [Example 102, 3-[8-(2,6-difluorophenyl)-2-({3-[(1,1-dimethylethyl)amino]propyl}amino)-7-oxo-7,8-dihydropyrido[2,3-d]pyrimidin-4-yl]-4-methyl-N-1,3-thiazol-2-ylbenzamide]
active: activity (pIC50) in TR-FRET p38α kinase assay (Recombinant human p38α) | activity (IC50) against TNF-stimulated IL-8 production from human neutrophils [1] | activity (IC50) against LPS-stimulated cytokine production in human whole blood [2]

Cc1ccc(C(=O)Nc2nccs2)cc1-c1nc(NCCNC(C)C)nc2c1ccc(=O)n2-c1c(F)cccc1F [Example 103, 3-[8-(2,6-difluorophenyl)-2-({2-[(1-methylethyl)amino]ethyl}amino)-7-oxo-7,8-dihydropyrido[2,3-d]pyrimidin-4-yl]-4-methyl-N-1,3-thiazol-2-ylbenzamide]
active: activity (pIC50) in TR-FRET p38α kinase assay (Recombinant human p38α) | activity (IC50) against TNF-stimulated IL-8 production from human neutrophils [1] | activity (IC50) against LPS-stimulated cytokine production in human whole blood [2]

CCCNC(=O)c1ccc(C)c(-c2nc(N(C)CCCN(C)C)nc3c2ccc(=O)n3-c2c(F)cccc2F)c1 [Example 104, 3-{8-(2,6-difluorophenyl)-2-[[3-(dimethylamino)propyl](methyl)amino]-7-oxo-7,8-dihydropyrido[2,3-d]pyrimidin-4-yl}-4-methyl-N-propylbenzamide]
active: activity (pIC50) in TR-FRET p38α kinase assay (Recombinant human p38α) | activity (IC50) against TNF-stimulated IL-8 production from human neutrophils [1] | activity (IC50) against LPS-stimulated cytokine production in human whole blood [2]

CCCNC(=O)c1ccc(C)c(-c2nc(NCCN(C)C)nc3c2ccc(=O)n3-c2c(F)cccc2F)c1 [Example 105, 3-(8-(2,6-difluorophenyl)-2-{[2-(dimethylamino)ethyl]amino}-7-oxo-7,8-dihydropyrido[2,3-d]pyrimidin-4-yl)-4-methyl-N-propylbenzamide]
active: activity (pIC50) in TR-FRET p38α kinase assay (Recombinant human p38α) | activity (IC50) against TNF-stimulated IL-8 production from human neutrophils [1] | activity (IC50) against LPS-stimulated cytokine production in human whole blood [2]

Cc1ccc(C(=O)Nc2nccs2)cc1-c1nc(N(C)CCCN(C)C)nc2c1ccc(=O)n2-c1c(F)cccc1F [Example 107, 3-{8-(2,6-difluorophenyl)-2-[[3-(dimethylamino)propyl](methyl)amino]-7-oxo-7,8-dihydropyrido[2,3-d]pyrimidin-4-yl}-4-methyl-N-1,3-thiazol-2-ylbenzamide]
active: activity (pIC50) in TR-FRET p38α kinase assay (Recombinant human p38α) | activity (IC50) against TNF-stimulated IL-8 production from human neutrophils [1] | activity (IC50) against LPS-stimulated cytokine production in human whole blood [2]

Cc1ccc(C(=O)Nc2nccs2)cc1-c1nc(NCCN(C)C)nc2c1ccc(=O)n2-c1c(F)cccc1F [Example 109, 3-(8-(2,6-difluorophenyl)-2-{[2-(dimethylamino)ethyl]amino}-7-oxo-7,8-dihydropyrido[2,3-d]pyrimidin-4-yl)-4-methyl-N-1,3-thiazol-2-ylbenzamide]
active: activity (pIC50) in TR-FRET p38α kinase assay (Recombinant human p38α) | activity (IC50) against TNF-stimulated IL-8 production from human neutrophils [1] | activity (IC50) against LPS-stimulated cytokine production in human whole blood [2]
